Measurements from PubChem BioAssay AID1347426 (Functional Genomics Laboratory (NCATS/FGL), 2020).
Among all 31,000 sequences or so, about 1,400 (4.5%) were called active.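 How the source made its calls: active means median seed-adjusted z-score above 1 or below -1; inactive means the rest.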 Some of the results follow.

Experiment: Novel Modifiers of Survival Motor Neuron (SMN) Protein: Gene Identification via Genome-wide siRNA Screen;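 further: luminescence tracks full-length SMN protein made from the SMN2 reporter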
Details: HEK293T SMN2-luciferase reporter, siRNA knockdown, 72 h; actives lie on both sides
Method in brief: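 HEK293T cells stably carrying an SMN2 promoter/splicing cassette–luciferase reporter were reverse-transfected with 1 pmol siRNA per well (druggable-genome library, 3 siRNAs per gene) and grown 72 h at 37 °C. Luminescence, normalized to negative-control siRNA and log10-transformed, was scored as MAD.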

Row | Sequence | median seed-adjusted z-score
1 | CCUUAACAGACGGAAUGAATT against CLDN5 | inactive: 0
2 | UAUCUUCUCUCUACACCAATT against PLA2G4C | inactive: 0.331
3 | CCAUCAAGAAUAUCAAAGATT against S100A12 | inactive: 0.346
4 | CGACCGCAACCUGAAGACATT against TCF7 | inactive: -0.338
5 | GAACAUUGGUCUGUCUAUATT against SNX14 | inactive: 0
6 | CAAAUUGGAUUGAGACUAUTT against NAMPT | inactive: 0
7 | GAAGAGCCUUUGAUCUCUATT against ANTXR2 | inactive: -0.727
8 | GGAAUUUGUUUGUCAUGCATT against GATAD1 | inactive: 0.328
9 | GGACCGCAAGUACACUCUATT against TAF10 | inactive: -0.587
10 | GAGAAGGCAUUGUUACUAATT against GKAP1 | inactive: -0.119
11 | GCAUCCUUACAGCACUGCATT against XRCC3 | inactive: 0.332
12 | GGACUACAAGGAUAACCCATT against SF4 | inactive: 0.498
13 | GCCCUUCCUUGAGUUCAAATT against SULT1A2 | inactive: 0.0541
14 | GGAUGUUUUCGAAACGCAUTT against BRDT | inactive: -0.357
15 | GGAUCCCGCUGCACAAGUUTT against CTSD | inactive: -0.282
16 | CGAGCGCAAAGCAAACGUATT against NR0B1 | inactive: -0.526
17 | GCAGAUCCGAUACACGAUUTT against PCDHGB1 | inactive: -0.482
18 | GCAACAAUGUGGGACUAUATT against CHPT1 | inactive: 0.0678
19 | CAGGCUAUCUAGCUUGAUATT against LARP5 | inactive: -0.144
20 | UUCUUGCACUACAACCUGATT against PIGZ | inactive: 0.74
21 | GUUUAAGUCAGAAACCAAATT against MSRB3 | inactive: -0.218
22 | CCACUUUUCCAGUACCAGATT against ZNF333 | inactive: 0.418

Row | Sequence | median seed-adjusted z-score
23 | GACUGUAAAUUGACAUGCATT against SCUBE3 | inactive: 0.152
24 | GCUACUAUCGAGAUCACAATT against NDST3 | inactive: 0.476
25 | GACUGUCAAGGGAUGAGCATT against HS6ST1 | inactive: -0.436
26 | ACCCAGAUAUGGAUCUGCATT against TTLL10 | inactive: 0.211
27 | GCAGGAAAUAGAUCGUUAUTT against RAB1A | inactive: 0.395
28 | AUGGAGAUACUUUAAGUUATT against SPRYD3 | inactive: 0.207
29 | CUAUCCUCCCUAUAUCUCATT against OPCML | inactive: -0.282
30 | CCCGAAAGCUAAUAUCGUUTT against UBA2 | inactive: 0.694
31 | GCGUGGAACCGGACAUCAATT against TPSD1 | inactive: 0.0848
32 | GCCGGUAUGUGAAGGAGAATT against CLK3 | active: -1.11
33 | CAUGUCACCUGCAAAAUUATT against THEM2 | inactive: 0.449
34 | CGAAACAAGUGACACCUCATT against IL2RA | inactive: 0.587
35 | AGCACUUGCUGACUAACGATT against BCL11B | inactive: 0.163
36 | GGAGGAUUGAAAUAGCACATT against HOXA5 | inactive: 0
37 | AGAUGCACAUGAUCCUGUATT against KCNN4 | inactive: 0.00864
38 | CGUGGACAAUGUCAAACAUTT against KPNA2 | inactive: 0.157
39 | GCAGUGGACCAAAUAUGAATT against UQCRB | inactive: 0.348
40 | GGAUUACUGCGUCGAUUCATT against ETV5 | inactive: 0.0756
41 | CAUGCAAGAUUGAAGUAAATT against CHRNB2 | inactive: -0.649
42 | CAAGUUCUAUCACUCCUUUTT against IRX2 | inactive: -0.409
43 | GGAACAUACAAGUUACCAATT against SLAMF6 | inactive: 0.0115
44 | GCUCUGCCGGAGAGACUAUTT against LMO2 | inactive: 0

A few values from above.
Under median seed-adjusted z-score, CCCGAAAGCUAAUAUCGUUTT against UBA2 is entered as inactive: 0.694
Under median seed-adjusted z-score, GCAUCCUUACAGCACUGCATT against XRCC3 is entered as inactive: 0.332
Under median seed-adjusted z-score, GACUGUCAAGGGAUGAGCATT against HS6ST1 is entered as inactive: -0.436

Two neighbouring entries out of the list so far, for reference:
Row | Sequence | median seed-adjusted z-score
36 | GGAGGAUUGAAAUAGCACATT against HOXA5 | inactive: 0
37 | AGAUGCACAUGAUCCUGUATT against KCNN4 | inactive: 0.00864

Following part:

Row | Sequence | median seed-adjusted z-score
45 | GACUUUCACAGUUCACCGATT against KCTD3 | inactive: 0.603
46 | GAGUUUAACCUGACGGAUATT against BEST1 | inactive: -0.322
47 | GAAACGAUGAGAUCUGUUUTT against PDHA2 | inactive: 0.118
48 | GUCCUUAUCUUUGCAAAUATT against ARL5B | inactive: -0.506
49 | GCAUAGGUGUUGUUGAUCATT against ARHGAP29 | inactive: -0.0483
50 | GCAAGGACUUUGACUCCUUTT against CLDN22 | inactive: 0
51 | GGUUCAACCUGCAUAGUGATT against SLC9A3R2 | inactive: 0.165
52 | GUGUCAAAACGUACUCAAATT against DGKG | inactive: 0.227
53 | CAAAGUAAAUGAGGCCUUUTT against MYOD1 | inactive: 0.309
54 | CAACGAUAGCUUAUCCCAATT against LPGAT1 | inactive: 0.625
55 | CAGAGGUGGUUACACGGAATT against PAK2 | inactive: 0.122
56 | GGAAAUAACAGCUCUGAAATT against RPS6KA5 | inactive: -0.0588
57 | CCACGGAUGUUCAAUAUCATT against RASA1 | inactive: -0.398
58 | ACAUGUCUUUCCAUCGCAATT against CD5 | inactive: 0.0416
59 | GCAUCGCCAUGAUGUGUAATT against S100A4 | inactive: 0.567
60 | GACUUUCUAUUAUGCUGUUTT against TF | inactive: 0.192
61 | GUAUCAAUCUUUGCGGAUATT against KL | inactive: -0.267
62 | CCUUCAUCGAUAACUCUGATT against UBN1 | inactive: 0.0782
63 | CGUGUGAAACGGCCCAUGATT against SOX3 | inactive: 0.32
64 | GACACGUUUUUGGAGGAUATT against SERPINA2 | inactive: 0.285
65 | AACCGGUCCUCAAAUCUUATT against ZNF92 | inactive: -0.375
66 | GCACUAACCUCUAUCGUCATT against ZNF530 | inactive: 0.0381

Row | Sequence | median seed-adjusted z-score
67 | GCCCGUUUGCUGUAUAUGATT against RHOJ | inactive: -0.304
68 | GAGAUUUAAUAUUGUCGAATT against CNKSR2 | inactive: -0.0536
69 | AGGAAGCUGUGCGAAAUGATT against RARG | inactive: -0.0492
70 | GCCUAACAGGAGAUCAUAATT against XDH | inactive: 0.806
71 | UCCCAGCACUUAUAGCCUATT against ANKRA2 | active: 1.26
72 | CCUCAAAUCGGACACUCAATT against ZNF524 | inactive: 0.00173
73 | CCGCGAGUCUGUCCACUAUTT against LPAR2 | inactive: 0.171
74 | UCCUCUAAAAAUUACAGUATT against TUBB2A | active: 1.03
75 | GGCAUCCUCUCAUUCGAGATT against ADD3 | inactive: 0.0741
76 | GGUGAUGGUUCAUUCGCAUTT against ZMIZ2 | inactive: -0.27
77 | GACUGAAUGAUAUGAAAGATT against RHOQ | inactive: -0.328
78 | GCAGCUCACUUAAGGCCUATT against VPS18 | inactive: 0.181
79 | UCUUUAUCUGGUUUGCUUATT against TAAR5 | inactive: 0.573
80 | CCUCAUCAACUCUGACAUATT against LMO2 | inactive: 0
81 | CCAAGAUAUUUAACGACAATT against MTR | inactive: -0.0696
82 | CCGAGUAUACUACAAGGAATT against RAB32 | inactive: -0.112
83 | GUUCGGACCUUAUCAGAAATT against LATS2 | inactive: -0.245
84 | GCUCAAUCCCAAUACCCUUTT against MAP3K13 | inactive: -0.121
85 | GGAGCUACAGUUUCACCUATT against PCDHGB3 | inactive: 0.275
86 | GCCUGGUUAUAUAACCGGATT against EP300 | inactive: -0.2
87 | UAAACAACAGGAGCCUUUUTT against RFNG | inactive: 0
88 | CCUGUUUGAUGACAGCGAATT against PPARGC1A | inactive: -0.0953

Row | Sequence | median seed-adjusted z-score
89 | CUACCAGCAUGUGAUGUUUTT against CH25H | inactive: -0.264
90 | GAAUUGACAAAGUUAGAUATT against SYNM | inactive: 0.104
91 | GCAUGAAUGCAACCUGAUUTT against DDX55 | inactive: 0.507
92 | AGGAGAUGAUGGACGCGCATT against NDUFB7 | inactive: -0.379
93 | GCAAAACUACGGACACUUATT against HOXD3 | inactive: 0.233
94 | GACUGUCGUCGACAAUAUUTT against SPO11 | inactive: 0.475
95 | GCUGCGGCAUGAUCACUAATT against LBXCOR1 | inactive: 0.0938
96 | CCCUCUCUUUGGACCGCAATT against ATP6V0E1 | inactive: -0.0658
97 | GGCUUAAGGUCAACCUGCUTT against GPR31 | inactive: -0.0381
98 | GAGUUUGAGUUCUAAUUCATT against ZNF619 | inactive: -0.536
99 | CUUGAUUGUUGGAACCAAATT against UBE2N | inactive: 0.995
100 | GGAAGGUGAUUAUAAAGAATT against TTC7B | inactive: 0.0338
101 | GGAUGUUGUUCGUAGGAGATT against SNTG2 | inactive: 0.603
102 | GAAUGAGCCUCUUAAAAUATT against CLDN23 | inactive: 0.817
103 | GGAAUCGUGGAGAAUAUGATT against NUBP2 | inactive: -0.21
104 | CAAGGACUUUUGUAACCGUTT against PKNOX2 | inactive: 0.0976
105 | GGCCUUCAGUAAAGGUUGATT against ARNTL | inactive: 0.0838
106 | CAAGUACAGUAAUGCCGAUTT against ZFHX3 | inactive: 0.045
107 | UGCUGACCCUAAUCCCUUATT against ETV2 | inactive: 0
108 | CGAUUUGAGCAACUUCUAUTT against SDHB | inactive: 0.0872
